This note sets out measurements from patent US20190275084A1.

Chains of the proteins cited; added tags and fusions are not shown. Lines headed by an entry give the natural chain unless they say otherwise; changes in a name come on top.
UniProt P23510: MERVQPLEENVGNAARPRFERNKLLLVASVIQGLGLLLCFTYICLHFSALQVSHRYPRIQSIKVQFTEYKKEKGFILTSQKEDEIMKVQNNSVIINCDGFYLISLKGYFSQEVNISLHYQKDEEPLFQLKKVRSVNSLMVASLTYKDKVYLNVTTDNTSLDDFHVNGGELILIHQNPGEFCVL

No constants are given. Whether binding was seen depends on the method and setting. Some entries that bind do so weakly or less than the wild type.

To fix the notation:
B1: 10A07 (hybridoma) (antibody, V domains shown)
VH: EVQLVESGGVLVQPGGSLRLSCAASGFTFSSYIMTWVRQAPGKGLEWVSGISGSGGGTYYADSMKGRFTISRDNSKNTLYLQMNSLRVEDTAVYYCAKDRLGPITLVRGGYYYGMDVWGQGTTVTVSS
VL: DIQMTQSPSSLSASVGDRVTITCRASQSISDYLNWYQQKPGKAPKFLIYAASSLQSGVPSRFSGSGSGTDFTLTVSSLQPEDFATYYCQQSYSTPRTFGQGTRVEIK
B2: 9H04 (hybridoma) (antibody, V domains shown)
VH: QVQLVESGGGLVKPGGSLRLSCAASRFTLSDYYMTWIRQAPGKGLEWVSYISSSGNTIYYADSVKGRFTISRDNAKNSLYLQMNSLRAEDTAVYYCARDLSGSYWDYYYGMDVWGQGTTVTVSS
VL: AIQLTQSPSSLSTSVGDRVTIACRASQGINNALAWYQQKPGKAPKLLIYDASSLESGVPSRFSGSGSGTDFTLTISSLQPEDFATYYCQQFNSYPRTFGQGTKVEIK
B3: 2D10 (hybridoma) (antibody, V domains shown)
VH: EVQLVESGGGLVQPGGSLRLSCAASGFTFSNYAMNWVRQAPGKGLEWVSTISGSGGATRYADSVKGRFTISRDNSRNTVYLQMNSLRVEDTAVFYCTKDRLIMATVRGPYYYGMDVWGQGTTVTVSS
VL: DIQMTQSPSSLSASVGDRVTITCRASQSISSYLNWYQQKPGKAPNLLIYAASSLQSGVPSRFSGSGSETDFTLTISSLQPEDFATYYCQQSHSVSFTFGPGTKVDIK

The target of the assay is Cell Expressed OX40L (CHO/MEF) (human) (UniProt P23510). Kind of assay: flow cytometry (FACS) on CHO-S cells expressing hOX40L. Background: In flow cytometry, cells or beads pass a laser one at a time.
As to B1, the binding entry is “binds”.
The result for B2 reads “binds”; that for B3, “binds”.
